Results reported in PubChem BioAssay AID2685 (National Center for Advancing Translational Sciences (NCATS), 2010).
This is one part of the list. Shown are side measurements of this screen, not its main read-out; they come without a call. Most of these compounds were active or inconclusive in the main read-out, so they are no random draw. Words in brackets tell the shape of the fitted curve; partial curves, single points and poor fits give uncertain potencies.

Experiment: qHTS Assay for Lipid Storage Modulators in Drosophila S3 Cells;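 for cell number change: cells counted by Cell Tracker Red CMTPX staining in the red channel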
Settings: BODIPY lipid droplet fluorescence, 18-24 h; for cell number change: measured here: cell count max response, cells fed with added oleic acid
Summary of the method: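 Laser-scanning cytometry quantifies lipid droplet accumulation (500–530 nm total intensity; droplet/cell object ratio) in oleic acid-fed (400 uM added) Drosophila S3 cells treated with a concentration series. 20 uM Triacsin C defined 100% inhibition.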

[1] = measured here: lipid fluorescence (Fed channel) AC50, cells fed with added oleic acid
[2] = measured here: cell number channel AC50, cells fed with added oleic acid

Compound	cell number change	AC50 [1]	AC50 [2]
CCCCOc1ccc(C(=O)N(C)CC(=O)Nc2ccc(C)cc2)cc1	19.4%	580 nM [rising, single point]	
COCn1c(C(O)c2ccccc2)cc2ccccc21 (stereo unspecified)	7.37%	16400 nM [rising, partial curve, poor fit]	
CC(C)CN(C(=O)COC(=O)/C=C/c1ccccc1)C1CCS(=O)(=O)C1 (stereo unspecified)	-9.59%		
CCSC(=Nc1ccccc1)C1=C(O)COC1=O	1.2%	731 nM [falling, partial curve]	
Cc1ccc(NC(=O)Cn2c(CCC(=O)O)ccc2-c2ccc(Cl)cc2)cc1	15.9%	5170 nM [rising, partial curve]	
CSC1=NCCN1C(=O)c1cccs1	-54.9%	3260 nM [rising, single point]	4110 nM [falling, full curve]
COc1cc(CNn2cnnc2)ccc1OCC(=O)NC1CCCCC1			1840 nM [rising, partial curve]
Cc1[nH]c2ccccc2c1C(=O)CNc1nccs1			411 nM [rising, single point]
CCCCOc1ccc(CN(CCO)CCO)cc1[N+](=O)[O-]	-8.51%		2590 nM [falling, single point]
Cc1ccc(N=Cc2cc(Cc3ccccc3Cl)cc([N+](=O)[O-])c2O)c(O)c1	-46.7%	20600 nM [falling, single point]	29100 nM [falling, single point]
O=C(CC(=O)c1ccccc1O)c1cccc(F)c1	-29%	6510 nM [rising, single point]	
O=c1[nH]c2ccccc2nc1CCc1ccccc1	-30.7%		130 nM [falling, full curve, poor fit]
Cc1ccnc(N2C(=O)c3cccc4c([N+](=O)[O-])ccc(c34)C2=O)c1	-145%	29100 nM [falling, single point]	18400 nM [falling, single point]
COc1ccc(OC)c(C2C(C(C)=O)=C(O)C(=O)N2c2ccc(F)cc2)c1 (stereo unspecified)	26.7%	461 nM [falling, full curve]	146 nM [rising, full curve, poor fit]
Cc1ccc(N(C(=O)CNC(=O)c2ccco2)C(C(=O)NC2CCCCC2)c2cccnc2)cc1 (stereo unspecified)	26.1%		
O=c1cc(O)c(-c2cccc(Cl)c2)c(Cl)[nH]1	-98.5%	461 nM [falling, partial curve, poor fit]	29100 nM [falling, partial curve, poor fit]
O=C(O)c1ccc(S(=O)(=O)N2CCCCCC2)cc1	16.6%	23100 nM [rising, single point]	
CN1CCN(Cc2cc(=O)oc3ccc(Cl)cc23)CC1	-0.974%	5.17 nM [falling, full curve, poor fit]	
Cc1ccc(NC(=O)CCNCc2ccco2)cc1S(=O)(=O)N(C)C	7.08%		
COc1cc(CNCCN2CCOCC2)ccc1OCc1ccccc1Cl	-47.2%		4110 nM [falling, single point]

Compound	cell number change	AC50 [1]	AC50 [2]
COc1ccccc1-n1cnnc1SCC(=O)NC1CCCC1	2.26%	18400 nM [falling, single point]	
CN(CC(=O)Nc1ccc(F)c(F)c1F)C1CCCCC1	3.73%		
Cc1ccc(-c2noc(CCC(=O)NCCN3CCN(Cc4ccccc4)CC3)n2)cc1	-21.1%	5.17 nM [falling, full curve, poor fit]	
Cc1ccc(C(=O)NC(=S)Nc2ccc(CN3CCCCC3)cc2)c(C)c1	-86.3%		18400 nM [falling, partial curve]
Cc1nnc(SCC(=O)N(Cc2ccccc2)C(C)C)n1-c1ccccc1	-18.5%		146 nM [rising, full curve, poor fit]
Brc1cc2ccccc2[n+](Cc2ccccc2)c1	5.41%	2590 nM [falling, single point]	
O=C(Nc1ccccc1)N1CCN2C(=O)c3ccccc3C12c1ccccc1 (stereo unspecified)	-21.2%		
CCOc1ccc(CN(C)C(=O)[C@H](C)NC(=O)c2ccco2)cc1OC	-5.13%	4.11 nM [rising, full curve, poor fit]	
CC(C)C(=O)NC(=S)Nc1ccc(S(=O)(=O)N(C)Cc2ccccc2)cc1			731 nM [rising, single point]
CN1CCCC(OC(=O)CCCC(=O)OC2CCCN(C)C2)C1 (stereo unspecified)	10.6%	29100 nM [rising, single point]	
O=C(Nc1ccc(F)cc1)c1nn(-c2ccccc2)c(=O)cc1Cl	-28%	25900 nM [falling, partial curve, poor fit]	
O=C1N(c2ccc(Cl)c(Cl)c2)CN(Cc2ccccc2)CN1n1cnnc1	2.21%	29100 nM [falling, single point]	
Cc1ccc(S(=O)(=O)NCCC(c2ccccc2)c2ccccc2)cc1C(=O)O		1030 nM [falling, single point]	
S=C(Nc1ccc(OCc2ccccc2)cc1)Nc1cccc(Cl)c1Cl	-48%	29100 nM [falling, single point]	29100 nM [falling, single point]
O=Cc1ccnc(-c2ccc(OC(=O)c3ccco3)cc2)n1	-21.4%	4110 nM [falling, full curve, poor fit]	
CC1=CC(=O)CC(C)(C)C1(O)/C=C/C(C)=C/C(=O)O (stereo unspecified)	-28.8%	16400 nM [falling, partial curve]	18.4 nM [falling, full curve]
CCCS(=O)(=O)N1CCC(CCOc2ccccc2)(C(=O)OCC)CC1	-19.6%	731 nM [falling, full curve]	731 nM [falling, full curve, poor fit]
CCOc1ccc(CN(C)CC(=O)Nc2cccc3ccccc23)cc1OC	-14.3%	259 nM [falling, full curve, poor fit]	820 nM [falling, full curve, poor fit]
CCc1cccc(C)c1NC(=O)c1cccnc1	7.61%		
CCC(C)(C)NC(=O)c1ccc(S(=O)(=O)N(C)c2ccccc2OC)cc1	5.23%	731 nM [falling, full curve]	1640 nM [falling, partial curve]

Quoted from the listing.
`Cc1nnc(SCC(=O)N(Cc2ccccc2)C(C)C)n1-c1ccccc1` | AC50 [2]: 146 nM [rising, full curve, poor fit]
`O=C(Nc1ccc(F)cc1)c1nn(-c2ccccc2)c(=O)cc1Cl` | cell number change: -28%
`CC1=CC(=O)CC(C)(C)C1(O)/C=C/C(C)=C/C(=O)O` (stereo unspecified) | AC50 [1]: 16400 nM [falling, partial curve]
`CN1CCCC(OC(=O)CCCC(=O)OC2CCCN(C)C2)C1` (stereo unspecified) | cell number change: 10.6%

Further results.

Compound	cell number change	AC50 [1]	AC50 [2]
CCCCCCSc1ccc([C@H]2N[C@@](CC(C)C)(C(=O)OC)[C@H]3C(=O)N(C)C(=O)[C@@H]23)cc1	-57.6%	5.17 nM [falling, full curve, poor fit]	18400 nM [falling, partial curve]
C=CCNc1nc(C(F)(F)F)nc2c1nnn2Cc1ccccc1Cl	16.8%		
COc1ccc(CN(C)CC(=O)Nc2cccc(S(=O)(=O)N(C)c3ccccc3)c2)c(OC)c1	-6.59%	2590 nM [falling, partial curve, poor fit]	
N/C(=N\OC(=O)COc1ccc(Cl)cc1)c1ccc(Cl)cc1	-12.7%		
CCOC(=O)N[C@H](Cc1c[nH]c2ccccc12)C(=O)NC1CC1	2.46%	29100 nM [falling, single point]	
O=C(Nc1ccc(S(=O)(=O)Nc2ccc(Cl)cc2)cc1)C1CCCO1 (stereo unspecified)	21.8%	6510 nM [rising, single point]	
O=C(C1CCCN(S(=O)(=O)c2cccc3cccnc23)C1)N1CCc2ccccc21 (stereo unspecified)	-0.264%	18400 nM [rising, single point]	
COc1ccc(NC(=O)C2=CC(c3ccc(OC)c(OC)c3)=NS(=O)(=O)N2C)cc1	18.4%	517 nM [falling, single point]	
COc1ccc(-c2cnc(SCCNC(=O)c3ccc4c(c3)OCO4)[nH]2)cc1		5170 nM [rising, partial curve, poor fit]	
COc1cccc(NC(=O)CN(C)C(=O)c2ccc(COc3ccccc3)o2)c1	-20%	1840 nM [falling, single point]	1640 nM [falling, partial curve, poor fit]
Nc1c(C(=O)NC2CCCC2)c2nc3ccccc3nc2n1/N=C/c1ccco1	93.8%	3260 nM [rising, partial curve]	2060 nM [rising, full curve]
O=C(Nc1ccccc1)c1ccc2c(c1)OCCO2	44.1%		29100 nM [rising, single point]
CCc1ccccc1-n1c(SCC(=O)NC)nnc1-c1cccnc1	-29.6%		206 nM [falling, full curve, poor fit]
Cc1cccc(N(C(=O)CNC(=O)c2ccco2)C(C(=O)NC2CCCC2)c2ccncc2)c1C (stereo unspecified)	4.76%		
Cc1ccc(C(=O)c2cc([N+](=O)[O-])ccc2N2CCCCC2)c(C)c1	-47.3%	18400 nM [rising, single point]	1640 nM [falling, partial curve]
COc1ccc(N=Nc2ccc3ccccc3c2)c(O)c1		820 nM [falling, full curve]	
CC1CCN(C(=O)CSc2ccc(-c3ccc(F)cc3)nn2)CC1	-10.7%	820 nM [rising, single point]	
Cc1ccnc(NC(=O)CNC(=O)C23CC4CC(CC(C4)C2)C3)c1	-61.2%	146 nM [falling, full curve, poor fit]	23100 nM [falling, partial curve, poor fit]
